Data from patent US20260258004A1, “CRYSTALLINE FORMS OF (6S)-5-[4'-FLUORO-2-(TRIFLUOROMETHYL)BIPHENYL-4-YL]-6-METHYL-3,6- DIHYDRO-2H-l,3,4-OXADIAZIN-2-ONE” (Bayer Aktiengesellschaft, priority 2022, published 2026).
This continues a long series; more values of the same kind are listed elsewhere.

Assay: Particle size distribution by laser diffraction (Malvern Panalytical Mastersizer 3000, Fraunhofer)
Assay type: physicochemical
Method: The particle size distribution was measured by laser diffraction using the Malvern Panalytical Mastersizer 3000.
The samples are again taken from example 1.6 (probe 1) and example 1.5 (probe 2), the same as used in example 4.
The sample to be analyzed is dispersed in 1 drop of Tween 80 the sample is processed according to ISO13320.
Laser diffraction is an often-used method for determination the particle size of dispersed solid materials. A widened laser beam illuminates a cuvette which contains part of the particles. By diffraction on the particles a characteristic pattern can be mapped on the detector. The resulting diffraction image is the additive overlaying of diffraction images of all particles.
Besides the mentioned detector two additional detectors are mounted in order to detect diffraction light in forward direction (FA1,9), in wide angle (LA1,2) and in back direction (BS1,2). The turbidity of the sample is measured by an extinction sensor. This is necessary to ensure a low particle concentration which is necessary to avoid wrong results by multiple diffraction of light at several particles.
The cuvette used was a wet unit where the suspension is pumped in a closed circuit with a dispersing unit that ensures a separation of single particles by shear forces.
The measurement range of the Malvern 3000 covers a particle size from 1 mm (2 mm) down to 20 nm
The calculation of the particle size distribution from the diffraction patterns was done on basis of theory of Fraunhofer.
This assumption is valid for particle sizes of 10 to 50 μm and above. For smaller particles the light scattering of the particle itself due to optical transparency must be considered which is done in the Mie-theory (not used for our probes). Precondition of the application of the Mie-theory is the knowledge of the refractive and absorption index of the dispersed solids.
Q3 is the cumulative volume distribution, e.g. D50=Q(50%) indicates 50% of the volume part of the sample is smaller than particle size of 50 μm.
The particle size is expressed as an equivalent diameter used in the method recommended by the Malvern Analysis Program and as described in ISO13320.

Cumulative volume distribution Q (particle size D 5.92 μm, 300 s US, listed as Probe 1): 14%
Cumulative volume distribution Q (particle size D 5.92 μm, without US, listed as Probe 1): 1.37%
Cumulative volume distribution Q (particle size D 6.72 μm, 300 s US, listed as Probe 1): 15.43%
Cumulative volume distribution Q (particle size D 6.72 μm, without US, listed as Probe 1): 1.56%
Cumulative volume distribution Q (particle size D 7.64 μm, 300 s US, listed as Probe 1): 16.9%
Cumulative volume distribution Q (particle size D 7.64 μm, without US, listed as Probe 1): 1.76%
Cumulative volume distribution Q (particle size D 8.68 μm, 300 s US, listed as Probe 1): 18.38%
Cumulative volume distribution Q (particle size D 8.68 μm, without US, listed as Probe 1): 1.97%
Cumulative volume distribution Q (particle size D 9.86 μm, 300 s US, listed as Probe 1): 19.88%
Cumulative volume distribution Q (particle size D 9.86 μm, without US, listed as Probe 1): 2.17%
Cumulative volume distribution Q (particle size D 11.2 μm, 300 s US, listed as Probe 1): 21.41%
Cumulative volume distribution Q (particle size D 11.2 μm, without US, listed as Probe 1): 2.38%
Cumulative volume distribution Q (particle size D 12.7 μm, 300 s US, listed as Probe 1): 22.99%
Cumulative volume distribution Q (particle size D 12.7 μm, without US, listed as Probe 1): 2.6%
Cumulative volume distribution Q (particle size D 14.5 μm, 300 s US, listed as Probe 1): 24.65%
Cumulative volume distribution Q (particle size D 14.5 μm, without US, listed as Probe 1): 2.81%
Cumulative volume distribution Q (particle size D 16.4 μm, 300 s US, listed as Probe 1): 26.43%
Cumulative volume distribution Q (particle size D 16.4 μm, without US, listed as Probe 1): 3.03%
Cumulative volume distribution Q (particle size D 18.7 μm, 300 s US, listed as Probe 1): 28.38%
Cumulative volume distribution Q (particle size D 18.7 μm, without US, listed as Probe 1): 3.24%
Cumulative volume distribution Q (particle size D 21.2 μm, 300 s US, listed as Probe 1): 30.55%
Cumulative volume distribution Q (particle size D 21.2 μm, without US, listed as Probe 1): 3.45%
Cumulative volume distribution Q (particle size D 24.1 μm, 300 s US, listed as Probe 1): 33.01%
Cumulative volume distribution Q (particle size D 24.1 μm, without US, listed as Probe 1): 3.66%
Cumulative volume distribution Q (particle size D 27.4 μm, 300 s US, listed as Probe 1): 35.82%
Cumulative volume distribution Q (particle size D 27.4 μm, without US, listed as Probe 1): 3.86%
Cumulative volume distribution Q (particle size D 31.1 μm, 300 s US, listed as Probe 1): 39.04%
Cumulative volume distribution Q (particle size D 31.1 μm, without US, listed as Probe 1): 4.09%
Cumulative volume distribution Q (particle size D 35.3 μm, 300 s US, listed as Probe 1): 42.69%
Cumulative volume distribution Q (particle size D 35.3 μm, without US, listed as Probe 1): 4.33%
Cumulative volume distribution Q (particle size D 40.1 μm, 300 s US, listed as Probe 1): 46.79%
Cumulative volume distribution Q (particle size D 40.1 μm, without US, listed as Probe 1): 4.62%
Cumulative volume distribution Q (particle size D 45.6 μm, 300 s US, listed as Probe 1): 51.31%
Cumulative volume distribution Q (particle size D 45.6 μm, without US, listed as Probe 1): 4.97%
Cumulative volume distribution Q (particle size D 51.8 μm, 300 s US, listed as Probe 1): 56.19%
Cumulative volume distribution Q (particle size D 51.8 μm, without US, listed as Probe 1): 5.38%
Cumulative volume distribution Q (particle size D 58.9 μm, 300 s US, listed as Probe 1): 61.32%
Cumulative volume distribution Q (particle size D 58.9 μm, without US, listed as Probe 1): 5.84%
Cumulative volume distribution Q (particle size D 66.9 μm, 300 s US, listed as Probe 1): 66.6%
Cumulative volume distribution Q (particle size D 66.9 μm, without US, listed as Probe 1): 6.34%
Cumulative volume distribution Q (particle size D 76 μm, 300 s US, listed as Probe 1): 71.86%
Cumulative volume distribution Q (particle size D 76 μm, without US, listed as Probe 1): 6.84%
Cumulative volume distribution Q (particle size D 86.4 μm, 300 s US, listed as Probe 1): 76.95%
Cumulative volume distribution Q (particle size D 86.4 μm, without US, listed as Probe 1): 7.31%
Cumulative volume distribution Q (particle size D 98.1 μm, 300 s US, listed as Probe 1): 81.73%
Cumulative volume distribution Q (particle size D 98.1 μm, without US, listed as Probe 1): 7.71%
Cumulative volume distribution Q (particle size D 111 μm, 300 s US, listed as Probe 1): 86.06%
Cumulative volume distribution Q (particle size D 111 μm, without US, listed as Probe 1): 8.06%
Cumulative volume distribution Q (particle size D 127 μm, 300 s US, listed as Probe 1): 89.81%
Cumulative volume distribution Q (particle size D 127 μm, without US, listed as Probe 1): 8.42%
Cumulative volume distribution Q (particle size D 144 μm, 300 s US, listed as Probe 1): 92.92%
Cumulative volume distribution Q (particle size D 144 μm, without US, listed as Probe 1): 8.94%
Cumulative volume distribution Q (particle size D 163 μm, 300 s US, listed as Probe 1): 95.36%
Cumulative volume distribution Q (particle size D 163 μm, without US, listed as Probe 1): 9.85%
Cumulative volume distribution Q (particle size D 186 μm, 300 s US, listed as Probe 1): 97.15%
Cumulative volume distribution Q (particle size D 186 μm, without US, listed as Probe 1): 11.47%
Cumulative volume distribution Q (particle size D 211 μm, 300 s US, listed as Probe 1): 98.37%
Cumulative volume distribution Q (particle size D 211 μm, without US, listed as Probe 1): 14.12%
Cumulative volume distribution Q (particle size D 240 μm, 300 s US, listed as Probe 1): 99.12%
Cumulative volume distribution Q (particle size D 240 μm, without US, listed as Probe 1): 18.13%
Cumulative volume distribution Q (particle size D 272 μm, 300 s US, listed as Probe 1): 99.54%
Cumulative volume distribution Q (particle size D 272 μm, without US, listed as Probe 1): 23.71%
Cumulative volume distribution Q (particle size D 310 μm, 300 s US, listed as Probe 1): 99.76%
Cumulative volume distribution Q (particle size D 310 μm, without US, listed as Probe 1): 30.88%
Cumulative volume distribution Q (particle size D 352 μm, 300 s US, listed as Probe 1): 99.87%
Cumulative volume distribution Q (particle size D 352 μm, without US, listed as Probe 1): 39.48%
Cumulative volume distribution Q (particle size D 400 μm, 300 s US, listed as Probe 1): 99.94%
Cumulative volume distribution Q (particle size D 400 μm, without US, listed as Probe 1): 49.13%
Cumulative volume distribution Q (particle size D 454 μm, 300 s US, listed as Probe 1): 100%
Cumulative volume distribution Q (particle size D 454 μm, without US, listed as Probe 1): 59.27%
Cumulative volume distribution Q (particle size D 516 μm, 300 s US, listed as Probe 1): 100%
Cumulative volume distribution Q (particle size D 516 μm, without US, listed as Probe 1): 69.25%
Cumulative volume distribution Q (particle size D 586 μm, 300 s US): 100%
Cumulative volume distribution Q (particle size D 586 μm, without US, listed as Probe 1): 78.43%
Cumulative volume distribution Q (particle size D 666 μm, 300 s US): 100%
Cumulative volume distribution Q (particle size D 666 μm, without US, listed as Probe 1): 86.25%
SMILES: C[C@@H]1OC(=O)NN=C1c1ccc(-c2ccc(F)cc2)c(C(F)(F)F)c1 [polymorph A, (6S)-5-[4′-Fluoro-2-(trifluoromethyl)biphenyl-4-yl]-6-methyl-3,6-dihydro-2H-1,3,4-oxadiazin-2-one]
